According to article doi:10.1101/2022.08.22.504506:

Assays:
[1] = molecular target: MpCBL-C-LgBiT (Marchantia polymorpha); experiment: split reporter
[2] = molecular target: MpCBL-B-LgBiT (Marchantia polymorpha); experiment: split reporter
[3] = molecular target: MpCBL-A-LgBiT (Marchantia polymorpha); experiment: split reporter
[4] = molecular target: GAL4-BD-MpCBL-C (Marchantia polymorpha); experiment: two-hybrid
[5] = molecular target: GAL4-BD-MpCBL-B (Marchantia polymorpha); experiment: two-hybrid

Row | binding [1] | binding [2] | binding [3] | binding [4] | binding [5] | Binder
1 | no binding | binds | binds |  |  | SmBiT-AtCIPK24 (protein, UniProt Q9LDI3 1-446) MTKKMRRVGKYEVGRTIGEGTFAKVKFARNTDTGDNVAIKIMAKSTILKNRMVDQIKREISIMKIVRHPNIVRLYEVLASPSKIYIVLEFVTGGELFDRIVHKGRLEESESRKYFQQLVDAVAHCHCKGVYHRDLKPENLLLDTNGNLKVSDFGLSALPQEGVELLRTTCGTPNYVAPEVLSGQGYDGSAADIWSCGVILFVILAGYLPFSETDLPGLYRKINAAEFSCPPWFSAEVKFLIHRILDPNPKTRIQIQGIKKDPWFRLNYVPIRAREEEEVNLDDIRAVFDGIEGSYVAENVERNDEGPLMMNAFEMITLSQGLNLSALFDRRQDFVKRQTRFVSRREPSEIIANIEAVANSMGFKSHTRNFKTRLEGLSSIKAGQLAVVIEIYEVAPSLFMVDVRKAAGETLEYHKFYKKLCSKLENIIWRATEGIPKSEILRTITF
2 |  |  |  | binds | binds | GAL4-AD-AtCIPK24 (protein, UniProt Q9LDI3 1-446) MTKKMRRVGKYEVGRTIGEGTFAKVKFARNTDTGDNVAIKIMAKSTILKNRMVDQIKREISIMKIVRHPNIVRLYEVLASPSKIYIVLEFVTGGELFDRIVHKGRLEESESRKYFQQLVDAVAHCHCKGVYHRDLKPENLLLDTNGNLKVSDFGLSALPQEGVELLRTTCGTPNYVAPEVLSGQGYDGSAADIWSCGVILFVILAGYLPFSETDLPGLYRKINAAEFSCPPWFSAEVKFLIHRILDPNPKTRIQIQGIKKDPWFRLNYVPIRAREEEEVNLDDIRAVFDGIEGSYVAENVERNDEGPLMMNAFEMITLSQGLNLSALFDRRQDFVKRQTRFVSRREPSEIIANIEAVANSMGFKSHTRNFKTRLEGLSSIKAGQLAVVIEIYEVAPSLFMVDVRKAAGETLEYHKFYKKLCSKLENIIWRATEGIPKSEILRTITF

Results are given in words; binding and its absence hold for the method and conditions named. For some assays here: A result given as binding can be weak or reduced; the word gives no strength. For some assays here: Where a sequence is shown, tags or fusion partners need not be part of it. For some assays here: In cells and extracts the contact can be indirect.
